The structures given here were assigned with low confidence; some may be wrong.
Molecular target: human ACC2 (Homo sapiens, UniProt O00763)
Experiment: ACC2 assay, spectrophotometric 384 well assay (NADH-linked, coupled lactate dehydrogenase/pyruvate kinase)
Details: hACC2 construct lacking 128 N-terminal amino acids, 25° C., 340 nm
Method: Spectrophotometric 384 Well Assay
Malonyl CoA formation by acetyl CoA carboxylases is stoichometrically linked to the consumption of ATP. ACC2 activity is measured in a NADH-linked kinetic method measuring ADP generated during the ACC reaction using a coupled lactate dehydrogenase/pyruvate kinase reaction.
For biological testing, a human ACC2 construct which lacks the 128 amino acids at the N-terminus for increased solubility (nt 385-6966 in Genbank entry AJ575592) is cloned. The protein is then expressed in insect cells using a baculoviral expression system. Protein purification is performed by anion exchange.
All compounds are dissolved in dimethyl sulfoxide (DMSO) to a concentration of 10 mM.
Assay reactions are then carried out in 384-well plates, with hACC2 in an appropriate dilution and at final assay concentrations (f.c.) of 100 mM Tris (pH 7.5), 10 mM trisodium citrate, 25 mM KHCO3, 10 mM MgCl2, 0.5 mg/mL BSA, 3.75 mM reduced L-glutathione, 15 U/mL lactate dehydrogenase, 0.5 mM phosphoenolpyruvate, 15 U/mL pyruvate kinase, compounds at different concentrations at final DMSO concentrations of 1%.
The enzymatic reaction is then started by addition of a mixture of NADH, acetyl Coenzyme A (both 200 μM f.c.) and ATP (500 uM f.c.). The decrease of the optical density (slope S) is then determined at 25° C. at a wavelength of 340 nm over 15 minutes in a spectrophotometric reader.
Each assay microtiter plate contains wells with vehicle instead of compound as controls for the non-inhibited enzyme (100% CTL; ‘HIGH’) and wells without acetyl-CoA as controls for non-specific NADH degradation (0% CTL; ‘LOW’).
The slope S is used for calculation of % CTL=(S(compound)−S('LOW'))/(S('HIGH')−S('LOW'))*100. Compounds will give values between 100% CTL (no inhibition) and 0% CTL (complete inhibition).
For IC50 value determination, the sample slope in the presence of the test compound after subtraction of the low controls (S(compound)−S('LOW')) are used.
An IC50 value is derived from the compound slopes at different dosages after subtraction of the low controls (S(compound)−S('LOW')) by non-linear regression curve fitting (equation y=(A+((B−A)/(1+((C/x)^D))))).

Sequences of proteins named here, by UniProt entry; tags and fusion partners are left off. Residues count along the entry.
UniProt O00763, 129-2458 limits assumed: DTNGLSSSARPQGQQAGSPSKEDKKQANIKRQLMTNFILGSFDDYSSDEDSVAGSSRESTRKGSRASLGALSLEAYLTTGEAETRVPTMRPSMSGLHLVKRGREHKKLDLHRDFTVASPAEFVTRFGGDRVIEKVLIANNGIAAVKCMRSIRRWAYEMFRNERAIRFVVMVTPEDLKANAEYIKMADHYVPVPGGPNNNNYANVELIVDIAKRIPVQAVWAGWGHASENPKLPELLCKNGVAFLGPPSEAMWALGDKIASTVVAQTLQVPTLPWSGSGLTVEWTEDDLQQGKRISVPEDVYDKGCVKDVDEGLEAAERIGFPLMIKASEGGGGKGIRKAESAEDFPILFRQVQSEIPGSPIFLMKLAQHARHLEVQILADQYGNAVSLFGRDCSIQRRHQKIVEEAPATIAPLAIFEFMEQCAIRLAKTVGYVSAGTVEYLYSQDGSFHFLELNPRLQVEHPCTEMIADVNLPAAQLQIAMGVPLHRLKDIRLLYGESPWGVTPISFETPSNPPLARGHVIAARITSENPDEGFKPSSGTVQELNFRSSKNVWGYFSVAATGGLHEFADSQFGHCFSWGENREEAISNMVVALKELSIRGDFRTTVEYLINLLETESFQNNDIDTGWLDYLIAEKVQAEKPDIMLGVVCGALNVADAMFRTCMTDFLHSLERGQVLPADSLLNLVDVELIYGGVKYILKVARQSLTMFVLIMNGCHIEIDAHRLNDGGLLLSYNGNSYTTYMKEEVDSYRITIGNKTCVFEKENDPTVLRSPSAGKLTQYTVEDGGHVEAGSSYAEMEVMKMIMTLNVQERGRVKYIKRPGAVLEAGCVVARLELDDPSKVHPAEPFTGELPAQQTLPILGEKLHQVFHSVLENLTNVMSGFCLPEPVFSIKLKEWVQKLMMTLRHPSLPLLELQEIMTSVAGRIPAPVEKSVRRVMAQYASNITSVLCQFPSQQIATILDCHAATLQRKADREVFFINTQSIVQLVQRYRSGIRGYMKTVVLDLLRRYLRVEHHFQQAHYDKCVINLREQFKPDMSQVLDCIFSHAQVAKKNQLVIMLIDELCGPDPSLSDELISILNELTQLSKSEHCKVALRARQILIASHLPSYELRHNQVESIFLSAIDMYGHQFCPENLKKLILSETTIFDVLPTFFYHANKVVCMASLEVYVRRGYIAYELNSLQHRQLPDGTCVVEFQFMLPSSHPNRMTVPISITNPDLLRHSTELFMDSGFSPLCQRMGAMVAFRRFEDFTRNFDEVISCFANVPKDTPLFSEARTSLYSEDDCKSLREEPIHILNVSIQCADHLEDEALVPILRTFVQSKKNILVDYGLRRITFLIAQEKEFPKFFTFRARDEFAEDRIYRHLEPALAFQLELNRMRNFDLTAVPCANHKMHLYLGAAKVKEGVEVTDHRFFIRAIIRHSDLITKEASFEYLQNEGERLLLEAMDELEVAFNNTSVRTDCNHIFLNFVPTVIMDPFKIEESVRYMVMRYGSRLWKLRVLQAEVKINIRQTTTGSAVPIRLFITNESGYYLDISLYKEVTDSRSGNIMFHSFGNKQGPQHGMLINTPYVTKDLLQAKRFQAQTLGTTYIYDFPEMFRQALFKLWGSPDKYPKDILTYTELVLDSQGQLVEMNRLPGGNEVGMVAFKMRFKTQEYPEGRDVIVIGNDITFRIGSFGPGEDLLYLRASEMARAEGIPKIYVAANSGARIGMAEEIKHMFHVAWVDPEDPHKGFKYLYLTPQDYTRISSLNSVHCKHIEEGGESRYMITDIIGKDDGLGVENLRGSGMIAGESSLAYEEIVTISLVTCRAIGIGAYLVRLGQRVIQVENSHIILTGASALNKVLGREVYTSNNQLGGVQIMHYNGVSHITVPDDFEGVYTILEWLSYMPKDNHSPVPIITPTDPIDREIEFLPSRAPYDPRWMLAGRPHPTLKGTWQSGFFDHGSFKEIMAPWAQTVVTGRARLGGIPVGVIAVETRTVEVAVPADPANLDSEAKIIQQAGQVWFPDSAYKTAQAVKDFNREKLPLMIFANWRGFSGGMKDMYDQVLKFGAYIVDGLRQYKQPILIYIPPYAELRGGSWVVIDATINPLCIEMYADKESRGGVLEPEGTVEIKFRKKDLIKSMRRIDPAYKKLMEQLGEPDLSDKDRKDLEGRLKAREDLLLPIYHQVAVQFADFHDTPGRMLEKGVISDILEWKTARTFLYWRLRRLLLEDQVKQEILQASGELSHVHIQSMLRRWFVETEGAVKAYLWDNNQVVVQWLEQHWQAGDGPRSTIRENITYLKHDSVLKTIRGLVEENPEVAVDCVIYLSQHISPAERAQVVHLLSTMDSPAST

Row | IC50 [nM] | Structure (SMILES)
1 | 1200 | COc1ncc(N2CCC(c3ccc([C@H](C)NC(C)=O)cc3)CC2)c(OC)n1
2 | 90 | CC(=O)N[C@@H](C)c1ccc(C2CCN(c3ccc(OCC4CC4)cc3)CC2)cc1
3 | 920 | CC(=O)NC(C)Cc1ccc(C2CCN(c3ccc(OCC4CC4)cc3F)CC2)cc1 (stereo not shown)

Row | Structure (SMILES) | IC50 [nM]
4 | CCCOc1ccc(N2CCC(c3ccc(CC(C)NC(C)=O)cc3)CC2)c(OC)c1 (stereo not shown) | 830

— patent US9006450B2 (Boehringer Ingelheim International GmbH, priority 2010, dated 2015)
